Reference: patent US4018754A (Shionogi & Co., Ltd., priority 1974, dated 1977)

Test: general procedure: solution-phase peptide synthesis; N,N'-dicyclohexylcarbodiimide with N-hydroxysuccinimide; N-hydroxysuccinimide ac

Row | Substance | step yield (coupling step) [%] | further results
1 | Cbz-K(Boc)K(Boc)K(Boc)K(Boc)K(Boc)-NH2 | 92.8 | –
2 | Z--Lys(Boc)--pro--Val--Gly--Lys(Boc)--Lys(Boc)--Lys(Boc)--Lys(Boc)--Lys(Boc)--NH2 | 88.2 | –
3 | Z-Lys(Boc)--Lys(Boc)--Lys(Boc)--Lys(Boc)--Lys(Boc)--Lys(Boc)--NH2 | – | step yield (coupling step, run 1): 99.6% and 96.6%
4 | H-K(Boc)K(Boc)K(Boc)K(Boc)-NH2 | – | step yield (late stage modification step): 88.1%
5 | Z--Lys(Boc)--Lys(Boc--Lys(Boc--Lys(Boc)--NH2 | 95.3 | –

Several values for one entry are separate records, joined by “and”; a condition that tells them apart may be missing. Identical values can stand only once. The star is where a group is joined. Cbz = O=C(OCc1ccccc1)*; Boc = CC(C)(C)OC(=O)*
